Measurements as given in patent publication US9593305B2, “Differentiation of pluripotent stem cells” (Janssen Biotech, Inc., priority 2008, dated 2017).
At least one compound was matched to its structure with a doubt left.

System: H1 human embryonic stem cells
Test: Secondary assay: compound combined with individual growth factors or small molecules, no activin A (Example 5, Table 4)
Format: cell-based
Conditions: agent combined with 2.5 μM compound and Wnt3a
Method: Clusters of H1 human embryonic stem cells were grown on reduced growth factor […]™ (Invitrogen; Cat #356231)-coated tissue culture plastic. Cells were passaged using collagenase (Invitrogen; Cat #Cat #17104-019) treatment and gentle scraping, washed to remove residual enzyme, and plated with even dispersal at a ratio of 1:1 (surface area) on reduced growth factor […]™-coated 96-well black plates (Packard ViewPlates; PerkinElmer; Cat #6005182) using volumes of 100 μl/well. Cells were allowed to attach as clusters and then recover log phase growth over a 1 to 3 day period, feeding daily with MEF conditioned medium supplemented with 8 ng/ml bFGF (R&D Systems; Cat #233-FB). Plates were maintained at 37° C., 5% CO2 in a humidified box throughout the duration of assay.
Other agents tested were purchased as follows: BMP-7 (Sigma; Cat #B1434), LY294002 (Cayman; Cat 70920), PD98059, U0126, U0124 (EMD Biosciences; Cat #453710), muscimol (Tocris; Cat #0289), biuculline (Tocris; Cat #0130), sodium butyrate (Sigma; Cat #B5887). All growth factors were solubilized in PBS with 0.1% BSA (Sigma; Cat #A7888) and stored frozen at −80° C. Small molecules were solubilized in 100% DMSO (Sigma; Cat #D2650) and stored frozen at −80° C. The compounds were available as 5 mM stocks in 96-well plate format, solubilized in 100% DMSO and stored at −80° C. […]

## CN1CCc2cc3c(cc2[C@H]1[C@@H]1OC(=O)c2c1ccc1c2OCO1)OCO3 [bicuculline, reference compound]
  effect on SOX17 expression: had no effect on SOX17 expression
